Results are given in words; binding and its absence hold for the method and conditions named. In cells and extracts the contact can be indirect. Some binding calls cover weakened binding; strength is not graded here.

Amino acid sequences for entries named in this document (tags omitted).
UniProt P49840: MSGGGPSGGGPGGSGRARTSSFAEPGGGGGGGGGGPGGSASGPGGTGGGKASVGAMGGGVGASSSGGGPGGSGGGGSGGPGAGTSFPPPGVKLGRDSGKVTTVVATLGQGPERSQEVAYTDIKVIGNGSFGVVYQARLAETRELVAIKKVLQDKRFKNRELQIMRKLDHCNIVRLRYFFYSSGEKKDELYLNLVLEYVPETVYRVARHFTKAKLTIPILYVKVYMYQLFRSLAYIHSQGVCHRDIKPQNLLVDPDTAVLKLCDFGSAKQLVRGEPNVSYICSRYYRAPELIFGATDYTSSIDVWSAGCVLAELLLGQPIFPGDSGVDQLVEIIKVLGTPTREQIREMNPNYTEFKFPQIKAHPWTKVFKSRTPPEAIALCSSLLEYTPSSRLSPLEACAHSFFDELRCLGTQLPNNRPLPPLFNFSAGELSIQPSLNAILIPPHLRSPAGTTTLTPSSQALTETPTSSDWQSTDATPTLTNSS
UniProt Q16665: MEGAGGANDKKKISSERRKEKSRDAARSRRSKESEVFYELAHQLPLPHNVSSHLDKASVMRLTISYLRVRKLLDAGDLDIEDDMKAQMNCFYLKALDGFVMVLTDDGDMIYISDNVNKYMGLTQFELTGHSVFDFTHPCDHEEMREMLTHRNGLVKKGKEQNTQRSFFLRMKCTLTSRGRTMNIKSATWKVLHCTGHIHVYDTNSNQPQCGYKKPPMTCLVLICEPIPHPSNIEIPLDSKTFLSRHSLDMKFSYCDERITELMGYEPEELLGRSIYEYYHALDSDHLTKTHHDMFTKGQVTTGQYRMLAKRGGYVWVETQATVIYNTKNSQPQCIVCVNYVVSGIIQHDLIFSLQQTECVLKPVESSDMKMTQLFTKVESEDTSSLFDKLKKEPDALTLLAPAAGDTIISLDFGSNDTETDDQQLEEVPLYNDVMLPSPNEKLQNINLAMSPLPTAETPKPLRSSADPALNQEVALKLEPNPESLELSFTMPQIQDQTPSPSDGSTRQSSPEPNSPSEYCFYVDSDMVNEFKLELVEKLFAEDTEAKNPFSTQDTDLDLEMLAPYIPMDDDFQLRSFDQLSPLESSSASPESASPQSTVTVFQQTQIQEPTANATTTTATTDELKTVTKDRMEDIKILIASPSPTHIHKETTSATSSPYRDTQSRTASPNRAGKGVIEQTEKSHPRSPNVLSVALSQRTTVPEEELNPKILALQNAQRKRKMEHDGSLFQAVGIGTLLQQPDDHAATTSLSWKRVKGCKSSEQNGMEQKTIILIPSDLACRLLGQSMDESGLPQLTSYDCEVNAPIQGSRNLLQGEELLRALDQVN

These results are taken from publication PMC8922767.

This assay addresses Glycogen synthase kinase-3α (human (endogenous in A549 and H226)) (UniProt P49840). In words: co-IP; primary antibodies on Protein L magnetic beads, whole cell lysate (NP-40 lysis buffer) incubated with the beads at 4 °C overnight, then western blot; A549 and H226 cells; under hypoxia (1% O2, 6 h), and under normoxia with MG132. In general terms: In western blotting, separated proteins are transferred to a membrane and probed.

For the substance “Hypoxia-inducible factor 1α (from UniProt Q16665 1-826)”, the binding result is “binds”.
